Reference: article PMC10326514
These are yes or no findings as the source states them, for the method shown. Binding seen in cells or lysates may run through a third protein. Some results given as binding are weak or reduced against the parent protein; the word gives no strength.

Chains of the proteins cited; added tags and fusions are not shown.
UniProt Q6ZTR5: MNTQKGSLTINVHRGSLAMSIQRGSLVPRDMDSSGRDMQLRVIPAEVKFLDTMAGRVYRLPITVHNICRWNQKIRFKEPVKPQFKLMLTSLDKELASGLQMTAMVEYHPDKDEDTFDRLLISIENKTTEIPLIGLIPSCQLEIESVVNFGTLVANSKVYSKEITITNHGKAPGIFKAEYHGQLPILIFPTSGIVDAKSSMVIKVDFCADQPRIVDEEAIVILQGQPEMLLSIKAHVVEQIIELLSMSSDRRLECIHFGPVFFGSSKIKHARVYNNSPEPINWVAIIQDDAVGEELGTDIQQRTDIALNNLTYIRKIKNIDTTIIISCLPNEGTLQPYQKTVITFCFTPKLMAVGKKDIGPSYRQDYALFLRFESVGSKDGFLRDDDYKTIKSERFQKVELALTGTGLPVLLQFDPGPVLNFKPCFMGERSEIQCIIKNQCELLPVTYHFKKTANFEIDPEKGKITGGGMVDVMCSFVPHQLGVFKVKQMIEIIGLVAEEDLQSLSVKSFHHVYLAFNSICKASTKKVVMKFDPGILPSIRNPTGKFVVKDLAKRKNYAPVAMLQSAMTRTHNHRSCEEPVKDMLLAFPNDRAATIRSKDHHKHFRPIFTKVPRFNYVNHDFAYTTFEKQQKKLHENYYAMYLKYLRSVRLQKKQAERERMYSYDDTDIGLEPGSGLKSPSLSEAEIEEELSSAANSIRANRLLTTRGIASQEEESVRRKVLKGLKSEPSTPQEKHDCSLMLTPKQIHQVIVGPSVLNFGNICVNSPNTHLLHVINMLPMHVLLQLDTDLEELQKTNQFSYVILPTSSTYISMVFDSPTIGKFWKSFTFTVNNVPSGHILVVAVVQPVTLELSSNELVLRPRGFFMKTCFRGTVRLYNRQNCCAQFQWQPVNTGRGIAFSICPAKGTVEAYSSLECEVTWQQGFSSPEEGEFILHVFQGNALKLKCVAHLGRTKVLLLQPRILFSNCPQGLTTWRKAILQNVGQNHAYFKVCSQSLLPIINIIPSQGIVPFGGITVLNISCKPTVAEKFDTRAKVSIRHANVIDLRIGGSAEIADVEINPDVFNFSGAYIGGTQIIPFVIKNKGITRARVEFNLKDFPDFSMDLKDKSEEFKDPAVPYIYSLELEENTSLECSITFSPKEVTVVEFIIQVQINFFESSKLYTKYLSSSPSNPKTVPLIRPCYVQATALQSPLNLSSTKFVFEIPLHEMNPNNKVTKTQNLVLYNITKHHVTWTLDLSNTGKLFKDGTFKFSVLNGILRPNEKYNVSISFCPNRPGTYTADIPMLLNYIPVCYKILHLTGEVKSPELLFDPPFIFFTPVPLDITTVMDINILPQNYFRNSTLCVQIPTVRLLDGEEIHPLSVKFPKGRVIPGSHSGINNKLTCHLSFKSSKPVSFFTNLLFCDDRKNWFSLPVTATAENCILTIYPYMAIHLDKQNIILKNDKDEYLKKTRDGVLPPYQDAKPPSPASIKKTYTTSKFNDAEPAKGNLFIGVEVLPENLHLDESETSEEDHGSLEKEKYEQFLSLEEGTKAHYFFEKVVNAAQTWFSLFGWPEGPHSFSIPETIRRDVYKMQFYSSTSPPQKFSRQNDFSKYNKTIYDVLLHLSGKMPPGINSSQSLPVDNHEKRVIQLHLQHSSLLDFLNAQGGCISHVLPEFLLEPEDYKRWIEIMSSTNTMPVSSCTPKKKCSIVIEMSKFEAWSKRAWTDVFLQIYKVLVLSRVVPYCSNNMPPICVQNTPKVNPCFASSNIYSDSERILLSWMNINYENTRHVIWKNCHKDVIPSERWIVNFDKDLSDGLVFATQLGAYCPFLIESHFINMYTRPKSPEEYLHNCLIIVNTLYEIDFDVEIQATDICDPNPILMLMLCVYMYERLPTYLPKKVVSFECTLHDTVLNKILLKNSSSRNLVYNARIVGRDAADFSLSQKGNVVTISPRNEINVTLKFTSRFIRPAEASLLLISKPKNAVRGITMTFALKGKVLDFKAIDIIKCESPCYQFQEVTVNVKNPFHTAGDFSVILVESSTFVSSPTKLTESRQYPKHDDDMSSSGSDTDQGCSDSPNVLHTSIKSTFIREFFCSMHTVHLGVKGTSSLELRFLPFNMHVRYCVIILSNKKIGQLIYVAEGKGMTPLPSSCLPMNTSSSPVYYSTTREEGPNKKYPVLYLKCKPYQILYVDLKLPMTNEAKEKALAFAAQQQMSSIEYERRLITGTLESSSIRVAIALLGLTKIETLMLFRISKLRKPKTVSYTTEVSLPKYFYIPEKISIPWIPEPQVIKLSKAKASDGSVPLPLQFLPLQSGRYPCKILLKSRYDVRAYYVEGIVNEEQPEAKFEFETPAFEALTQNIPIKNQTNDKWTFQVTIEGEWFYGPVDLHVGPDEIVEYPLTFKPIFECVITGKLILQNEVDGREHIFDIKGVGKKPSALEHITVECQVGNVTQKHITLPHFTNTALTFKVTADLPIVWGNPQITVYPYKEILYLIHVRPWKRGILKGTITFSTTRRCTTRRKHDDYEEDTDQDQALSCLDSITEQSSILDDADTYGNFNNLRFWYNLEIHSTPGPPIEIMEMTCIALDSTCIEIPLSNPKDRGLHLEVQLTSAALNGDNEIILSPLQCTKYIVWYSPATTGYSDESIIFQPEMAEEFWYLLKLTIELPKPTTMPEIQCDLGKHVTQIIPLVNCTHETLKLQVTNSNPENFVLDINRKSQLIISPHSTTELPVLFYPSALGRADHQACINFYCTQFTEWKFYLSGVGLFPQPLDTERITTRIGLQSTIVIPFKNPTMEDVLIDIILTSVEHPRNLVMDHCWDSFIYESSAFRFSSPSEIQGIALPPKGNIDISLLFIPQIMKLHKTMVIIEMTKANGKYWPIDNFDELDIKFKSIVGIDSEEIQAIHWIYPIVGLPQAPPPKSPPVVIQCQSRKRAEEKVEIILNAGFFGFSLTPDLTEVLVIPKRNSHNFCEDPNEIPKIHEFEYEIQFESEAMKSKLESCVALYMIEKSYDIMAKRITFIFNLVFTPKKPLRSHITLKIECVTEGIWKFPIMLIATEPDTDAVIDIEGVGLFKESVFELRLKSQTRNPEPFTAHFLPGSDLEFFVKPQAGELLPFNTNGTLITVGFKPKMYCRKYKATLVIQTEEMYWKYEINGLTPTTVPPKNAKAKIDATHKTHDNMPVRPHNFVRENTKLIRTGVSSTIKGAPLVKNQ

Biological target: Cilia and flagella-associated protein 47 (human (endogenous in testis)) (UniProt Q6ZTR5)
Assay: co-IP; protein from human testes (obstructive azoospermia patients) incubated with 7 ul of target antibodies overnight at 4°C, Protein A/G magnetic beads 2 h at room temperature, washed with 1 x PBS three times, immunoblot

B1: CFAP69 (protein, UniProt A5D8W1 1-941)
chain: MWTEEAGATAEAQESGIRNKSSSSSQIPVVGVVTEDDEAQDVFKPMDLNRVIKLLEETDKDGLEEKQLKFVKKLVQCYQNGLPLRDLAQIFKILNLCSGKIKNQPRFIESAYDIIKLCGLPFLKKKVSDEITYAEDTANSIALLGDLMKIPSSELRIQICKCIVDFYHAEPPKKHIPGYQQASSSYKIQMAEVGGLAKTMVQSMTLLENQLVEKLWVLKVLQHLSTSEVNCTIMMKAQAASGICTHLNDPDPSGQLLFRSSEILWNLLEKSSKEEVIQQLSNLECLLALKEVFKNLFMRGFSHYDRQLRNDILVITTIIAQNPEAPMIECGFTKDLILFATFNEVKSQNLLVKGLKLSNSYEDFELKKLLFNVIVILCKDLPTVQLLIDGKVILALFTYVKKPEKQKIIDWSAAQHEELQLHAIATLSSVAPLLIEEYMSCQGNARVLAFLEWCESEDPFFSHGNSFHGTGGRGNKFAQMRYSLRLLRAVVYLEDETVNKDLCEKGTIQQMIGIFKNIISKPNEKEEAIVLEIQSDILLILSGLCENHIQRKEIFGTEGVDIVLHVMKTDPRKLQSGLGYNVLLFSTLDSIWCCILGCYPSEDYFLEKEGIFLLLDLLALNQKKFCNLILGIMVEFCDNPKTAAHVNAWQGKKDQTAASLLIKLWRKEEKELGVKRDKNGKIIDTKKPLFTSFQEEQKIIPLPANCPSIAVMDVSENIRAKIYAILGKLDFENLPGLSAEDFVTLCIIHRYLDFKIGEIWNEIYEEIKLEKLRPVTTDKKALEAITTASENIGKMVASLQSDIIESQACQDMQNEQKVYAKIQATHKQRELANKSWEDFLARTSNAKTLKKAKSLQEKAIEASRYHKRPQNAIFHQTHIKGLNTTVPSGGVVTVESTPARLVGGPLVDTDIALKKLPIRGGALQRVKAVKIVDAPKKSIPT
**Q.** With B1 as the binder, how does the binding read?
**A.** binds

B2: SEPTIN4 (protein, UniProt O43236 1-996)
chain: MVKTNKPGAKVAVSAQRGSEVTTNTSPQQGHGYVLASSHRSAAVSLNPSHRRSEAAHPTTPHSASDYPRSVSLQSGPGHYAVPTPRGPETGPRTESSRHSSPHLKSQKTQTLASHASSRQWKVSPPREEAARRGSESKSGREVGHHASSIPDAKSTHQLSFQDQKNNLQSQILEDDPPSKVQNPQGVRVPRRILSYPKDEAVQTEPIQRITTTSEIRSPRSPSLLEHGSSCVSADYQTAQRRVPVEESETGPYGPIPSKPKALYRNMNLDSLLKLSVLKDSDGVHRVSARVDPESLHKYSAYPETKPSAKVLVSSQVESNVRTPIRGNSEVGRRVTISPGVQSVEPTHHVTVPSVSEGSHKSSMFVTPEPIYKQQTQKPPEITYMSQGPTPRYPELSQKPSIHAELELTPRPLPPRSLPRYGPDSSWWPLLNPEVETPQSQLTTPDFEPKCSPSLDLLLSGFKIDSSPFCEDLKFQREKASLSPPSPPKEFPSWAPLSEVPQTPKHTCKQPIQRFTAFFLDVSEEMYNRVIWWLKDEEIKRFLEDTTDDGELSKFVKDFSGNASCHPPEAKTWASRPQVPEPRPQAPDLYDDDLEFRPPSRPQSSDNQQYFCAPAPLSPSARPRSPWGKLDPYDSSEDDKEYVGFATLPNQVHRKSVKKGFDFTLMVAGESGLGKSTLVNSLFLTDLYRDRKLLGAEERIMQTVEITKHAVDIEEKGVRLRLTIVDTPGFGDAVNNTECWKPVAEYIDQQFEQYFRDESGLNRKNIQDNRVHCCLYFISPFGHGLRPLDVEFMKALHQRVNIVPILAKADTLTPPEVDHKKRKIREEIEHFGIKIYQFPDCDSDEDEDFKLQDQALKESIPFAVIGSNTVVEARGRRVRGRLYPWGIVEVENPGHCDFVKLRTMLVRTHMQDLKDVTRETHYENYRAQCIQSMTRLVVKERNRNKLTRESGTDFPIPAVPPGTDPETEKLIREKDEELRRMQEMLHKIQKQMKENY
**Q.** Which binding does the source give for B2 here?
**A.** binds
